Measured values taken from publication doi:10.1101/069161.
Results are given in words; binding and its absence hold for the method and conditions named. Binding seen in cells or lysates may run through a third protein. Some binding calls cover weakened binding; strength is not graded here. Sequences can lack the tags named with a protein.

Sequences of proteins named here, by UniProt entry; tags and fusion partners are left off.
UniProt P04150: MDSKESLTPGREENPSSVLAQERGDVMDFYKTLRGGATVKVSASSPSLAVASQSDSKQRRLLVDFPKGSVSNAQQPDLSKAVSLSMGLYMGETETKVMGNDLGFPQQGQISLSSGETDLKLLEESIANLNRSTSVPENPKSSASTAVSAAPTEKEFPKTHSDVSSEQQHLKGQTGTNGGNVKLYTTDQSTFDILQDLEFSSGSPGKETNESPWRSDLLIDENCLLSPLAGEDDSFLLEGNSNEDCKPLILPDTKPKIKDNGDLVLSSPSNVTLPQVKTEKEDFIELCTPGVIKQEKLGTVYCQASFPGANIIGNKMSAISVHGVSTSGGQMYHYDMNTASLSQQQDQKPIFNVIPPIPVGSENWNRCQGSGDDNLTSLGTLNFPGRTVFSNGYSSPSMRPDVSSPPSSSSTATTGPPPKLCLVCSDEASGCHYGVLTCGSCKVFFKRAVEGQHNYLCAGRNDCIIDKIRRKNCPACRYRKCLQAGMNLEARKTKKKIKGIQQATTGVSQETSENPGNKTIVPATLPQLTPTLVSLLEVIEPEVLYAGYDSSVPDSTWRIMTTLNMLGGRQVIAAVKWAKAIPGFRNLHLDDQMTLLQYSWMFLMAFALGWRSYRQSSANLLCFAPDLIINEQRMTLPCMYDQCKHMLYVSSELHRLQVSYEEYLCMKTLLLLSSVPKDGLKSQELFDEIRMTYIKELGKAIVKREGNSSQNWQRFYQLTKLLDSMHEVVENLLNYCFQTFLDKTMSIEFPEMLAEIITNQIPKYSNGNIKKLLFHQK
UniProt Q9UHX1: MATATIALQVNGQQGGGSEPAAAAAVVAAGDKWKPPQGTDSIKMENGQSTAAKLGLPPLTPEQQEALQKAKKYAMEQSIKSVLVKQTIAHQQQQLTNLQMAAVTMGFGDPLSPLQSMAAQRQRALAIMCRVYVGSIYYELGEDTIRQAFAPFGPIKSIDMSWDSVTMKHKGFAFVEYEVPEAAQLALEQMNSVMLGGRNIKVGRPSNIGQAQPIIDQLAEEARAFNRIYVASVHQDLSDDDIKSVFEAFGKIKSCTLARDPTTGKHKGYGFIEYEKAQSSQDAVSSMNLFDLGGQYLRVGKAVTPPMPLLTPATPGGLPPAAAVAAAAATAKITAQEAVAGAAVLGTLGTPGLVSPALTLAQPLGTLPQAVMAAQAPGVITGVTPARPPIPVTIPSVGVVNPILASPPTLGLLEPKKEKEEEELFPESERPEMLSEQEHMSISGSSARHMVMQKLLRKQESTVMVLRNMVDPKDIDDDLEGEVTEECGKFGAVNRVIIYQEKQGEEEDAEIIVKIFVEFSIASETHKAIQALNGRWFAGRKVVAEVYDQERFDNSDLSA
UniProt P26368: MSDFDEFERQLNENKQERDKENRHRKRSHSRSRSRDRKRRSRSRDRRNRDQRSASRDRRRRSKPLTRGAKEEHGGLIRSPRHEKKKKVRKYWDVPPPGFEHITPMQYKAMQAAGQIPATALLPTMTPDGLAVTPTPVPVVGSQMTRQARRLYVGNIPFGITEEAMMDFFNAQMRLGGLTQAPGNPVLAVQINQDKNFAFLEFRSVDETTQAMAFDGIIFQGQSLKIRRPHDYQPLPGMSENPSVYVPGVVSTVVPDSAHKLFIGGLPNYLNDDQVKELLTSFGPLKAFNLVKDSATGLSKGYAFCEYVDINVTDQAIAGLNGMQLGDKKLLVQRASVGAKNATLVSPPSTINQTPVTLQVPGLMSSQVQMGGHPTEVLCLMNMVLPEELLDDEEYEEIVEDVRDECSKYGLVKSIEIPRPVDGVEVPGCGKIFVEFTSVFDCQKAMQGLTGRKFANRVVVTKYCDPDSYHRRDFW

Assays:
Test in all cases: co-IP
[1] = target: T1, FLAG-hARGLU1 (arginine and glutamate rich 1, full length) (human) (UniProt Q9NWB6)
T1 sequence: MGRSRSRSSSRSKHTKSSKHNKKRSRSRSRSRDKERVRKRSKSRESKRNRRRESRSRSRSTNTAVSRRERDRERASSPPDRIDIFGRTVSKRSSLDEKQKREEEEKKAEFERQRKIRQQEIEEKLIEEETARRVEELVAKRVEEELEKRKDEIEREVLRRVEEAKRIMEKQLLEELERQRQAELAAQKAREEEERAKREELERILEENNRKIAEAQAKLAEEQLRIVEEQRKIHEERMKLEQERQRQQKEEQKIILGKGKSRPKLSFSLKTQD

[2] = target: HA-hGR (glucocorticoid receptor) (human) (UniProt P04150)
[3] = target: FLAG-PUF60 (human) (UniProt Q9UHX1)
[4] = target: FLAG-U2AF2 (human) (UniProt P26368)

For “HA-hGR (glucocorticoid receptor) (from UniProt P04150 1-777)”, the binding [1] was “binds”.

B1: FLAG-hARGLU1 (arginine and glutamate rich 1, full length) (protein, UniProt Q9NWB6-1 1-273)
chain: T1 sequence
For B1, the binding [2] was “binds”.

B2: HA-hARGLU1 (protein, UniProt Q9NWB6-1 1-273)
chain: T1 sequence
B2 was tested, and the binding [3] was “binds” and the binding [4] was “binds”.

B3: FLAG-MAZ (MYC-associated zinc finger protein) (protein, UniProt P56270 1-477)
chain: MFPVFPCTLLAPPFPVLGLDSRGVGGLMNSFPPPQGHAQNPLQVGAELQSRFFASQGCAQSPFQAAPAPPPTPQAPAAEPLQVDLLPVLAAAQESAAAAAAAAAAAAAVAAAPPAPAAASTVDTAALKQPPAPPPPPPPVSAPAAEAAPPASAATIAAAAATAVVAPTSTVAVAPVASALEKKTKSKGPYICALCAKEFKNGYNLRRHEAIHTGAKAGRVPSGAMKMPTMVPLSLLSVPQLSGAGGGGGEAGAGGGAAAVAAGGVVTTTASGKRIRKNHACEMCGKAFRDVYHLNRHKLSHSDEKPYQCPVCQQRFKRKDRMSYHVRSHDGAVHKPYNCSHCGKSFSRPDHLNSHVRQVHSTERPFKCEKCEAAFATKDRLRAHTVRHEEKVPCHVCGKMLSSAYISDHMKVHSQGPHHVCELCNKGTGEVCPMAAAAAAAAAAAAAAVAAPPTAVGSLSGAEGVPVSSQPLPSQPW
B3 was tested, and the binding [2] was “no binding”.
